For at least one compound, name, drawing or mass did not settle the structure.
Experiments:
[1] = tested on: Sprague-Dawley rats fed high-fat atherogenic diet (HFD); assay: NASH markers in HFD rats: hepatic TG, hepatic TC, steatosis score, serum ALT and AST; type: in vivo, rat; details: rats fed the HFD, every other week administrations; result in words
Procedure: (§1) Sprague-Dawley rats (6-weeks-old male weighing about 180 grams) were randomly divided into three groups. The first group of the rats were subjected to a normal diet (ND) for a time period of 12 weeks. The second and the third group of the rats were subjected to a high-fat atherogenic diet (HFD, 40 kcal % fat, 1.25% cholesterol, 0.5% sodium cholate) for the time period of 12 weeks. The third HFD group of the rats were treated with about 5 mg/kg of RRx-001 every other week for the last 8 weeks before characterization (“HFD-RRx-001”). Several markers of inflammation and steatosis were evaluated.
(§2) In a trial that tested for markers related to NASH, every other week administrations of RRx-001 reduced hepatic steatosis scores, serum ALT and AST levels, and hepatic levels of cholesterol and triglycerides in rats fed the HFD.

[2] = tested on: Sprague-Dawley rats fed high-fat atherogenic diet (HFD); assay: Oil red O and H&E staining of tissue samples of HFD rats; type: in vivo, rat; details: about 5 mg/kg every other week for last 8 of 12 weeks, between HFD (substantial) and ND (minimal), FIG. 4C
[3] = tested on: Sprague-Dawley rats fed high-fat atherogenic diet (HFD); assay: Oil red O staining of aortic tissue (plaque) in HFD rats; type: in vivo, rat; details: about 5 mg/kg every other week for last 8 of 12 weeks, compared with HFD (substantial staining) and ND (minimal), FIG. 2C
NLRP3 inflammasome [4] = details: intraperitoneal administration, high-fat diet-induced NASH in rats; Caroen 2022; cited from earlier work
rats fed a high fat diet = details: cited from earlier work
NLRP3 inflammasome [5] = assay: Serum NLRP3, IL-1β and caspase-1 levels (ELISA) in HFD rats; type: in vivo, rat; details: rats fed the HFD, every other week administrations; result in words
Procedure: as §1, §2

[6] = high fat diet rats treated with RRx-001 vs high fat diet alone, Chen 2021
[7] = intraperitoneal administration, high-fat diet-induced NASH in rats, Caroen 2022

O=C(CBr)N1CC([N+](=O)[O-])([N+](=O)[O-])C1 [RRx-001, 2-bromo-1-(3,3-dinitroazetidin-1-yl)ethan-1-one]
reduced: hepatic levels of cholesterol [1] | hepatic levels of triglycerides [1] | hepatic steatosis scores [1] | serum ALT levels [1] | serum AST levels [1] | cholesterol (rats fed a high fat diet; [6]) | triglycerides (rats fed a high fat diet; [6]) | hepatic levels of cholesterol (rats fed a high fat diet; [7]) | hepatic levels of triglycerides (rats fed a high fat diet; [7]) | serum ALT levels (rats fed a high fat diet; [7]) | serum AST levels (rats fed a high fat diet; [7])
approximately halfway in between: oil red O staining of aortic tissue (plaque build-up) [3]
intermediate staining: oil red O staining of tissue samples (lipids) [2]
decreased: IL-1β levels (NLRP3 inflammasome [4]) | caspase-1 levels (NLRP3 inflammasome [4]) | levels of NLRP3 (NLRP3 inflammasome [4]) | IL-1β levels on ELISA (NLRP3 inflammasome [5]) | caspase-1 levels on ELISA (NLRP3 inflammasome [5]) | levels of serum NLRP3 on ELISA (NLRP3 inflammasome [5])
significantly reduced: hepatic steatosis scores (rats fed a high fat diet; high fat diet rats treated with RRx-001 vs high fat diet alone, literature (Chen 2021; Caroen 2022))

Reference: US20250134858A1, “COMPOSITIONS AND METHODS FOR TREATMENT OF NAFLD AND NASH AND RELATED DYSLIPIDEMIAS” (EpicentRx, Inc., priority 2022, published 2025)
